PubChem BioAssay AID1259425, University of Nebraska Medical Center, 2018

Test: 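Seek colon cancer weak points whose silencing resembles KSR1 loss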 (primary screen)
Cell system: HCT116 human colon cancer cells
Knock-down reagent: siRNA pool against human genes, 50 nM siRNA
Detection: 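mRNA of six signature genes measured together by branched-DNA assay after 50 nM siRNA pool, blank removed, divided by geometric mean of two housekeeping genes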
Scale: BNIP3L mRNA: higher = more BNIP3L transcript after knockdown; NDRG1 mRNA: higher = more NDRG1 transcript after knockdown; BNIP3 mRNA: higher = more BNIP3 transcript after knockdown; ALDOC mRNA: higher = more ALDOC transcript after knockdown; ACSL5 mRNA: higher = more ACSL5 transcript after knockdown
The deposit covers about 14,000 reagents; below is a random part of them. Not stated in the record: the time to read-out.

The opening 4 records as a preview:
no.	gene	BNIP3L mRNA, set 1	NDRG1 mRNA, set 1	BNIP3 mRNA, set 1	ALDOC mRNA, set 1	ACSL5 mRNA, set 1
1	TRIM25 (tripartite motif containing 25)	0.118	0.142	0.224	0.0383	0.0838
2	MIR600HG (MIR600 host gene)	0.278	0.626	0.481	0.0951	0.257
3	SF3A3 (splicing factor 3a subunit 3)	0.168	0.372	0.187	0.0356	0.153
4	KLK7 (kallikrein related peptidase 7)	0.0781	0.115	0.241	0.00799	0.109

The listing, from the first entry:
no.	gene	BNIP3L mRNA, set 1	NDRG1 mRNA, set 1	BNIP3 mRNA, set 1	ALDOC mRNA, set 1	ACSL5 mRNA, set 1
1	TRIM25 (tripartite motif containing 25)	0.118	0.142	0.224	0.0383	0.0838
2	MIR600HG (MIR600 host gene)	0.278	0.626	0.481	0.0951	0.257
3	SF3A3 (splicing factor 3a subunit 3)	0.168	0.372	0.187	0.0356	0.153
4	KLK7 (kallikrein related peptidase 7)	0.0781	0.115	0.241	0.00799	0.109
5	TEKT1 (tektin 1)	0.206	0.232	0.369	0.103	0.313
6	GCNT4 (glucosaminyl (N-acetyl) transferase 4)	0.0787	0.254	0.277	0.00877	0.19
7	MATCAP2 (microtubule associated tyrosine carboxypeptidase 2)	0.227	0.235	0.335	0.0427	0.249
8	CCDC82 (coiled-coil domain containing 82)	0.0599	0.223	0.374	0.0327	0.215
9	LRRC17 (leucine rich repeat containing 17)	0.143	0.178	0.431	0.0293	0.0607
10	RBM10 (RNA binding motif protein 10)	0.102	0.375	0.437	0.0223	0.187
11	TOX3 (TOX high mobility group box family member 3)	0.0823	0.191	0.204	0.0364	0.0751
12	TAGLN3 (transgelin 3)	0.17	1.16	0.367	0.0313	0.247
13	GPR180 (G protein-coupled receptor 180)	0.0752	0.106	0.261	0.0216	0.103
14	P3H4 (prolyl 3-hydroxylase family member 4 (inactive))	0.144	0.165	0.3	0.0437	0.231
15	SPATA7 (spermatogenesis associated 7)	0.128	0.189	0.378	0.0122	0.316
16	WDR76 (WD repeat domain 76)	0.221	0.329	0.615	0.0527	0.282
17	CLTC (clathrin heavy chain)	0.373	0.462	0.458	0.0352	0.0816
18	MFNG (MFNG O-fucosylpeptide 3-beta-N-acetylglucosaminyltransferase)	0.085	0.144	0.216	0.027	0.151
19	PIGL (phosphatidylinositol glycan anchor biosynthesis class L)	0.16	0.14	0.23	0.0322	0.217
20	MTHFD1L	0.155	0.173	0.36	0.0398	0.205
21	GPI (glucose-6-phosphate isomerase)	0.155	0.236	0.237	0.0415	0.229
22	MYLK3 (myosin light chain kinase 3)	0.131	0.861	0.428	0.0287	0.303
23	MYCNOS (MYCN opposite strand)	0.107	0.125	0.234	0.0272	0.114
24	ZNF90 (zinc finger protein 90)	0.149	0.135	0.273	0.0413	0.292
25	CAMSAP2	0.0647	0.425	0.345	0.0104	0.215
26	FAM167B (family with sequence similarity 167 member B)	0.118	0.0568	0.296	0.0348	0.143
27	UCN (urocortin)	0.107	0.576	0.187	0.0126	0.132
28	CRP (C-reactive protein)	0.0562	0.331	0.228	0.00913	0.184
29	EPHA1 (EPH receptor A1)	0.11	0.0411	0.389	0.0137	0.181
30	CALHM2 (calcium homeostasis modulator family member 2)	0.231	0.455	0.35	0.0247	0.22
31	AQP8 (aquaporin 8)	0.0648	0.165	0.396	0.0352	0.128
32	MCUR1 (mitochondrial calcium uniporter regulator 1)	0.148	0.1	0.262	0.0248	0.205
33	NTRK3 (neurotrophic receptor tyrosine kinase 3)	0.0577	0.0768	0.278	0.00609	0.127
34	EVL (Enah/Vasp-like)	0.0822	0.214	0.251	0.00676	0.284
35	MSMO1 (methylsterol monooxygenase 1)	0.15	0.0818	0.204	0.0242	0.266
36	LINC00158 (long independently transcribed non-coding RNA 158)	0.1	0.22	0.335	0.0189	0.088
37	TOMM20 (translocase of outer mitochondrial membrane 20)	0.0819	0.146	0.29	0.0389	0.186
38	LSR (lipolysis stimulated lipoprotein receptor)	0.0869	0.636	0.332	0.00303	0.246
39	WDR91 (WD repeat domain 91)	0.3	1.03	0.517	0.0647	0.175
40	SART3 (spliceosome associated factor 3, U4/U6 recycling protein)	0.0811	0.122	0.231	0.0209	0.135
41	ZBP1 (Z-DNA binding protein 1)	0.17	0.201	0.329	0.0541	0.132
42	DACT1 (dishevelled binding antagonist of beta catenin 1)	0.132	0.164	0.471	0.0473	0.22
43	GNPDA1 (glucosamine-6-phosphate deaminase 1)	0.116	0.459	0.334	0.041	0.394
44	ASMT (acetylserotonin O-methyltransferase)	0.107	0.209	0.161	0.0174	0.214
45	RAB3A (RAB3A, member RAS oncogene family)	0.0873	0.141	0.232	0.0241	0.13
46	FBXL19 (F-box and leucine rich repeat protein 19)	0.112	0.701	0.292	0.057	0.234
47	OXR1 (oxidation resistance 1)	0.0909	0.163	0.284	0.0302	0.17
48	ITGB1BP1 (integrin subunit beta 1 binding protein 1)	0.0755	0.334	0.396	0.000961	0.35
49	OR5P2 (olfactory receptor family 5 subfamily P member 2)	0.197	0.337	0.241	0.0252	0.307
50	NOP14 (NOP14 nucleolar protein)	0.137	0.627	0.223	0.0326	0.245
51	VPS35 (VPS35 retromer complex component)	0.175	0.273	0.334	0.0546	0.271
52	CDC42BPB (CDC42 binding protein kinase beta)	0.0869	0.0893	0.419	0.00506	0.142
53	CDY1 (chromodomain Y-linked 1)	0.118	0.42	0.209	0.0143	0.231
54	USP5 (ubiquitin specific peptidase 5)	0.062	0.204	0.215	0.0147	0.168
55	ACTB (actin beta)	0.0942	0.363	0.273	0.0495	0.189
56	HBZ (hemoglobin subunit zeta)	0.131	0.13	0.159	0.0125	0.0765
57	PRKCE (protein kinase C epsilon)	0.255	0.0927	0.277	0.00666	0.0874
58	OSBPL1A (oxysterol binding protein like 1A)	0.0678	0.0675	0.187	0.0205	0.0916
59	KCNK4 (potassium two pore domain channel subfamily K member 4)	0.129	0.239	0.299	0.0139	0.286
60	ANKZF1 (ankyrin repeat and zinc finger peptidyl tRNA hydrolase 1)	0.164	0.788	0.294	0.0187	0.221
61	TRIM54 (tripartite motif containing 54)	0.0856	0.138	0.198	0.0178	0.151
62	HIPK3 (homeodomain interacting protein kinase 3)	0.088	0.111	0.198	0.00814	0.217
63	PNMA8B (PNMA family member 8B)	0.371	0.563	0.354	0.124	0.395
